In article PMC4594013 (Frontiers in Pharmacology, 2015):
Read-outs that look alike come from different tables or passages of the source.

Assays:
[1] = target: T1, OAT2-tv1 (Homo sapiens, UniProt Q9Y694); design: The open reading frame of the human ortholog of OAT2 transcript variant 1 (OAT2-tv1) containing 546 amino acids was amplified from human kidney cDNA; expressed in transfected cells; host or cells: CHO Flp-In (A1); CHO, HEK and MDCK Flp-In (A2); conditions: inhibition of OAT2-tv1; ref Babelova et al., 2015; cited from earlier work
T1 sequence (Q9Y694 1-546 isoform Q9Y694-2): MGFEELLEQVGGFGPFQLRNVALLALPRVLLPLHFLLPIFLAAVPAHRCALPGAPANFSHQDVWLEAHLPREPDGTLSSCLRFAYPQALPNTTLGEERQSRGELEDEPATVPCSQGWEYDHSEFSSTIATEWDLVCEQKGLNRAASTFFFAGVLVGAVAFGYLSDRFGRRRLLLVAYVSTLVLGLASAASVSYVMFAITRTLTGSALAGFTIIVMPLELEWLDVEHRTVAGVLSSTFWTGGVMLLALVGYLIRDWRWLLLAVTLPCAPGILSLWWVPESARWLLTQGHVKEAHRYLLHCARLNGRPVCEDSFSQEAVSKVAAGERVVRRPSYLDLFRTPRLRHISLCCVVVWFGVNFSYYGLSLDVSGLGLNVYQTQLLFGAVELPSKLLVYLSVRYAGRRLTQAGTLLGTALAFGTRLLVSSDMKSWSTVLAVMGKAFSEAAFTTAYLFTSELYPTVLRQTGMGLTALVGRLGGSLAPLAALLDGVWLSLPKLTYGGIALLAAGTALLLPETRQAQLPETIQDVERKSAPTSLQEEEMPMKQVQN

[2] = target: T1, OAT2-tv1; assay: Inhibition of [3H]penciclovir uptake into CHO-OAT2-tv1 cells; assay type: cell-based; conditions: inhibition of [3H]penciclovir uptake by CHO-OAT2-tv1 cells; 5 min, room temperature
Protocol: All experiments examining cellular radiolabeled compound uptake were conducted using cells grown to confluence in 24-well flat bottom plates. The transport solution consisted of WB (room temperature) containing radiolabeled compound and the uptake period for all experiments was at an initial rate time point of 5 min. [^3H]Penciclovir served as the probe OAT2 substrate. We also examined the uptake of [^3H]para-aminohippurate, [^3H]estrone-3-sulfate, [^14C]glutarate, [^14C]succinate, [^3H]paclitaxel, and [^3H]dehydroepiandrosterone sulfate by OAT2 since published studies indicate that they are substrates of the transport protein ([Sun et al., 2001]; [Kobayashi et al., 2005a]). […] For all cellular uptake experiments, the medium was aspirated and the cells were rinsed once with WB (0.3 ml). Following the uptake period, cells were washed three times with ice-cold WB (0.5 ml each wash). After aspirating the final wash the cells were lysed in 0.5 N NaOH/1% SDS (0.4 ml) for ∼30 min on an orbital shaker. 1 N HCl (0.2 ml) was then added to neutralize the NaOH, and the cell lysates (0.5 ml) were transferred to scintillation vials containing liquid scintillation cocktail (CytoScint ES, MP Biomedicals). Cellular radioactivity content was determined with a Beckman LS6500 liquid scintillation counter. Protein content was determined using the bicinchoninic acid method. […]

IC50 [2]: 10.8 ± 1.5 µM
SMILES: NS(=O)(=O)c1cc(C(=O)O)c(NCc2ccco2)cc1Cl [Furosemide]
IC50 [1]: 10.9 µM
